Results are given in words; binding and its absence hold for the method and conditions named. Binding seen in cells or lysates may run through a third protein. Binding calls can cover weak binding; strength is not graded here.

Sequences of proteins named here, by UniProt entry; tags and fusion partners are left off. A change or cut given only in a name is not applied to a line headed by its entry.
UniProt O43524, whole entry, stated change not applied: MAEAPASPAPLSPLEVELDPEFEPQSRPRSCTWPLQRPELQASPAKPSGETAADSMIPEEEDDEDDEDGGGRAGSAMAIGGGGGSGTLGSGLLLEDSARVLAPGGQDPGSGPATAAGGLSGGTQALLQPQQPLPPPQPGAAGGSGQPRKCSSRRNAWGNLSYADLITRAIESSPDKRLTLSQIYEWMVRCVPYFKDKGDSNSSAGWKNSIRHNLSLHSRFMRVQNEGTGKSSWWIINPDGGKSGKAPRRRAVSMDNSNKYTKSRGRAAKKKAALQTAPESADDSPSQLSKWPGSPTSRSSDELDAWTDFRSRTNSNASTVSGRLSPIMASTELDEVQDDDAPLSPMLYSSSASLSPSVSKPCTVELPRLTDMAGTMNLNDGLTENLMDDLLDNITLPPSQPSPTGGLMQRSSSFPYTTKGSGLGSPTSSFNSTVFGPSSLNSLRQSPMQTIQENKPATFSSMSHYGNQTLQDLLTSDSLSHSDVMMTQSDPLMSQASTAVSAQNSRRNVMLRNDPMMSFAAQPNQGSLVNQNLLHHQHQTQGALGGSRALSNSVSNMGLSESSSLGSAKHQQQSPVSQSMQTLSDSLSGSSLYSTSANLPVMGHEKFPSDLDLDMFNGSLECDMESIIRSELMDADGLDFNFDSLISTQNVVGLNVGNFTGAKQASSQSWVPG

Among the data in paper PMC2896402 are binding values, retold here.

This test concerns the target HA-FOXO3 (UniProt O43524). The experiment in a line: co-IP; total lysates of 293T cells cotransfected with HA-tagged FOXO3 plus myc-tagged βTrCP1 or βTrCP1ΔF, and IKKβ or an empty vector; IP anti-myc and IB anti-HA, and reciprocal IP anti-HA and IB anti-myc.

βTrCP1ΔF-myc (from UniProt Q9Y297): the binding entry is “binds”.
